Source: US20200181248A1 (Chugai, published 2020)
Results are given in words; binding and its absence hold for the method and conditions named. Some binding calls cover weakened binding; strength is not graded here.

Amino acid sequences for entries named in this document (tags omitted). A change or cut given only in a name is not applied to a line headed by its entry.
UniProt P51654: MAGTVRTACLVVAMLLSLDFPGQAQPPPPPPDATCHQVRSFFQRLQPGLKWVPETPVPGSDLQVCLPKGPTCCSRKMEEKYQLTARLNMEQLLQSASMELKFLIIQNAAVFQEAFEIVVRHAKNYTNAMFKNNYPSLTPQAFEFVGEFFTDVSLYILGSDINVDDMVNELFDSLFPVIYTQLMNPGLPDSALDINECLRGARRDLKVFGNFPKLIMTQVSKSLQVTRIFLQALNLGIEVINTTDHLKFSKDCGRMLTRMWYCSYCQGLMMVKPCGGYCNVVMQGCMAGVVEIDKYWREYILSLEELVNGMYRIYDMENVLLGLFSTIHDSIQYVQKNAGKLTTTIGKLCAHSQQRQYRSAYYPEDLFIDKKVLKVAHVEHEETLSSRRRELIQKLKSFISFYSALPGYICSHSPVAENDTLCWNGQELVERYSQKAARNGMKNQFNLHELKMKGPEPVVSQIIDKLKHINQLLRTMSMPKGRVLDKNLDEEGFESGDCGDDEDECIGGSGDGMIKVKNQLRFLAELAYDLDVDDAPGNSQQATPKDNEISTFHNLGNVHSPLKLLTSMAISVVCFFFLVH

Key:
[1] = biological target: soluble form of the human GPC3 core protein (Ser 495 and Ser 509 substituted with Ala, His tag at the C terminus) (human) (UniProt P51654); assay: ELISA screening of hybridoma supernatants on GPC3 core protein
[2] = biological target: secreted form of GPC3 (in the culture supernatant of HepG2 and in the plasma/serum of mice transplanted with HepG2) (human) (UniProt P51654); assay: sandwich ELISA, combinations M6B1-M18D4 and M19B11-M18D4
[3] = biological target: soluble form of the human GPC3 core protein (Ser 495 and Ser 509 substituted with Ala, His tag at the C terminus) (human) (UniProt P51654); assay: western blotting of the soluble GPC3 core protein (band of 40 kDa)
[4] = biological target: secreted form of GPC3 (in the culture supernatant of HepG2 and in the plasma/serum of mice transplanted with HepG2) (human) (UniProt P51654); assay: sandwich ELISA; biotin-labeled M18D4 as detecting antibody

Measured: binding

B1: M18D4 (antibody, human IgG1, kappa, V domains shown)
VH: EVQLQQSGTVLARPGASVKMSCKASGYTFTGYWMRWVKQRPGQGLEWIGAIYPGNSDTTYNQKFKGKAKLTAVTSVSTAYMELSSLTNEDSAVYYCSRSGDLTGGFAYWGQGTLVTVST
VL: DIVMTQAAFSNPVTLGTSTSISCRSSKSLLHSNGITYLYWYLQKPGQSPQLLIYQMSNLASGVPDRFSSSGSGTDFTLRISRVEAEDVGVYYCAQNLELPYTFGSGTKLEIKR
binds: all assays above
